Laboratory results published in patent US5342604A (The Dow Chemical Company, priority 1992, dated 1994).

Tested on: CC-46 monoclonal antibody
Experiment: Complexes attached per antibody (conjugation of Y-90 complex)
Details: 40:1 complex to antibody, NaCNBH3

Structure (SMILES): Nc1ccc(CC(CN(CCN(CC(=O)O)CC(=O)O)CC(=O)O)N(CC(=O)O)CC(=O)O)cc1 (centres unmarked) [ABDTPA, 1-(p-aminobenzyl)diethylenetriaminepentaacetic acid]
- average complexes per antibody: 5.0 complexes per antibody

Structure (SMILES): Nc1cc(CN(CCN(CC(=O)O)CC(=O)O)CC(=O)O)c(O)c(CN(CCN(CC(=O)O)CC(=O)O)CC(=O)O)c1 [Example 12]
- average complexes per antibody: 5.4 complexes per antibody
